Laboratory results taken from PubChem BioAssay AID485314 (National Center for Advancing Translational Sciences (NCATS), 2010).
Out of some 340,000 compounds screened, about 4,500 (1.3%) were called active. This list was built around the results that the source calls inconclusive (neither active nor inactive); the mix of calls is not that of the screen. Calls come from the whole dose curve; as a rule, active = well fitted inhibition curve with a large enough effect; inconclusive = small, poorly fitted or top-dose-only effect, or another doubt; inactive = no such curve, though single readings can be large or run the other way. Potencies of inconclusive entries are doubtful fits and often do not repeat.

molecular target: DNA polymerase beta (Homo sapiens) (UniProt P06746); assay: qHTS Assay for Inhibitors of DNA Polymerase Beta; conditions: Pol beta primer extension/strand displacement, fluorescence kinetic; activity change, negative = inhibition: at 114 µM (top of the series)
How it was run: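 Pol beta (10 nM) was preincubated with compound for 15 min at room temperature. The reaction was then started with 50 nM substrate and read immediately and after a further 10 min at room temperature.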
% is set by controls: 0 for no effect and ±100 for the full control effect; potency is the fitted concentration of half-maximal effect.

Potency, inconclusive:
CN(C)C=Nc1ccccc1C1C=NNC1=O (stereo not drawn) 89.1 µM [inhibitor, single point], Cc1ccccc1NC(=O)CN(C)S(=O)(=O)c1ccc(-c2ccc(=O)[nH]n2)s1 63.1 µM [inhibitor, partial curve, poor fit], COc1ccc(OCCCC(=O)Nc2nnc(C3CCCO3)s2)cc1 (stereo not drawn) 22.4 µM [inhibitor, full curve], CN(CCO)c1cnccn1 89.1 µM [inhibitor, single point], Cc1ccc2c(c1)c1c(c(=O)n(-c3ccccc3C)c(=O)n1CC(=O)c1ccc(Cl)cc1)n2C 3.98 µM [inhibitor, single point], CN(CC(=O)Nc1ccc(F)c(F)c1)S(=O)(=O)c1cccs1 89.1 µM [inhibitor, single point], Cc1ccc2nc(SCC(=O)NCc3ccco3)[nH]c2c1 10 µM [inhibitor, partial curve], CCOc1ccc(/C=C2/SC(=O)NC2=S)cc1 89.1 µM [inhibitor, single point], Cc1ccc(NC(=O)Nc2c[nH]c(=O)[nH]c2=O)c(Cl)c1 20 µM [inhibitor, partial curve, poor fit], O=C(Oc1ccc(N2C(=O)CCC2=O)cc1)c1ccccc1Cl 89.1 µM [inhibitor, single point], COc1ccc(C(=O)Nc2ccc(C(=O)Nc3cccnc3)cc2)cc1 31.6 µM [inhibitor, partial curve], O=C(Cn1c(=O)n(CCCC(=O)NC2CCCC2)c(=O)c2ccccc21)NCCC1=CCCCC1 89.1 µM [inhibitor, single point], COc1cc(C2OCC3C(c4ccc(OC5OC(CO)C(O)C(O)C5O)c(OC)c4)OCC23)ccc1O (stereo not drawn) 11.2 µM [inhibitor, full curve], COc1ccc(C)cc1NC(=O)c1cnc2ccc(C)cn2c1=O 14.1 µM [inhibitor, partial curve, poor fit], O=c1[nH]c2cc(S(=O)(=O)CCO)ccc2o1 17.8 µM [inhibitor, single point], COc1ccc(NC(=O)c2cccn(CC=C(C)C)c2=O)cc1 89.1 µM [inhibitor, single point], Cc1ccc(/C=N/n2nnnc2N)cc1[N+](=O)[O-] 1.78 µM [inhibitor, partial curve, poor fit], Cc1ccccc1NC(=O)CN1C(=O)NC2(CCCCC2)C1=O 3.98 µM [inhibitor, partial curve, poor fit], COc1ccc(-c2nn(-c3ccccc3)cc2/C=N/N=C(N)N)cc1OC 25.1 µM [inhibitor, partial curve, poor fit], O=C(CSc1nc(-c2ccccc2F)nc2cc(=O)[nH]n12)Nc1cccc(C(F)(F)F)c1 44.7 µM [inhibitor, partial curve], Cc1ccc(C2CC(=O)C=C(Nc3ccc(Cl)cc3)C2)cc1 (stereo not drawn) 31.6 µM [inhibitor, partial curve], O=C(Cn1cc(C(=O)COc2ccccc2)c2ccccc21)NCc1ccco1 89.1 µM [inhibitor, partial curve], CCc1ccc(CNC(=O)c2cnc3sc(N4CCOCC4)nn3c2=O)cc1 89.1 µM [inhibitor, single point], CC(=O)/C(=N\Nc1cccc(Cl)c1)Sc1nnc(-c2ccccc2)n1-c1ccccc1 2.82 µM [inhibitor, single point], c1ccc(-c2nc(NCc3ccco3)c3ccccc3n2)cc1 70.8 µM [inhibitor, single point], COc1ccc(C)cc1NS(=O)(=O)c1c(C(=O)N2CCC(C)CC2)c(C)n(C)c1C 89.1 µM [inhibitor, single point], Cc1ccc(C(OCC(O)CNCc2ccc(F)cc2)c2ccccc2)cc1 (stereo not drawn) 100 µM [inhibitor, single point], O=C(Nc1cccc(Cl)c1N1CCCC1)c1ccc(Br)o1 79.4 µM [inhibitor, single point], O=C1NC(c2ccccc2Cl)=N/C1=C/c1ccco1 28.2 µM [inhibitor, partial curve], O=C(N/N=C\c1cn[nH]c1-c1ccccc1)c1cccs1 89.1 µM [inhibitor, single point], CCCc1ccc(OCc2ccc(C(=O)O)o2)c(OC)c1 31.6 µM [inhibitor, partial curve], CCOc1ccc(/C=C/c2nc(C#N)c(NC(C)c3ccccc3)o2)cc1 (stereo not drawn) 25.1 µM [inhibitor, single point], COc1cccc(C(=O)N2c3ncnn3C3(CCCCC3)[C@@H]3CCCC[C@@H]32)c1 10 µM [inhibitor, partial curve], CCCc1c(O)nc(SCC(=O)NCCc2ccc(OC)c(OC)c2)[nH]c1=O 89.1 µM [inhibitor, single point], CCOc1ccc(CNC(=O)Cn2nc(C)c3c(C)n(-c4ccc(C)cc4)nc3c2=O)cc1 100 µM [inhibitor, single point], CC(=O)c1ccc(-n2c(CCC(=O)O)ccc2-c2cccs2)cc1 0.224 µM [inhibitor, full curve]

Potency, active:
COCCCn1cnc2c(c1=O)c1nc3ccccc3nc1n2-c1ccc(C)cc1 35.5 µM, O=S(=O)(c1ccc(Cl)cc1)c1nnn2c1nc(NC1CCCCC1)c1sccc12 31.6 µM, S=C(NCCc1ccccc1)N1CCN(C(c2ccccc2)c2ccccc2)CC1 89.1 µM, CC(=O)Nc1cccc(-c2cc(C)c3cc4c(cc3n2)OCO4)c1 39.8 µM, CCc1ccc(N2C(=O)CC(N(CC3CCCO3)C(=O)/C=C/C(=O)O)C2=O)cc1 (stereo not drawn) 44.7 µM, O=C(O)c1cc(N/N=C/c2c(O)ccc3ccccc23)ccc1Cl 79.4 µM, O=c1[nH]c(C(Cl)Cl)nc2sc3c(c12)CCN(Cc1ccccc1)C3 12.6 µM, O=C(COc1ccc(/C=N/NC(=O)c2cc3ccccc3o2)cc1Br)Nc1ccccc1 5.62 µM, C=C(C)C(=O)Nc1cccc(C2=NOC3(C2)C[C@@H](C(N)=O)N(C(=O)c2ccc(Cl)cc2)C3)c1 (stereo partly drawn) 8.91 µM, CC(C)CC1=NN2C(=N)/C(=C\c3coc4ccccc4c3=O)C(=O)N=C2S1 20 µM

Activity change, negative = inhibition, inconclusive:
COc1ccc(CCNC(=O)c2cc(=O)c3cc(C)ccc3o2)cc1 -32.6% [inhibitor], CCOc1ccc(/C=N/NC(=O)Cc2cccs2)cc1 -35.1% [inhibitor], O=C(O)c1c(-c2ccccc2)oc2ccc(OCc3c(F)cccc3Cl)cc12 -40.8% [inhibitor], Cn1ccsc1=NC(=O)c1ccc(S(C)(=O)=O)c([N+](=O)[O-])c1 -30.1% [inhibitor]

Activity change, negative = inhibition, inactive:
CC(C)c1cccc(C(C)C)c1NC(=O)COC(=O)C1=COCCO1 12.5%, Cc1nn(-c2ccccc2)c(Cl)c1CN(C(=O)CCl)c1cccc2ccccc12 -0.893%, Cc1ccccc1S(=O)Cc1ccc(C(=O)NCCN2CCOCC2)o1 (stereo not drawn) -19.9%, O=C1c2cccnc2C(=O)N1C1CCCCC1 16.9%, C=CCN(C(=O)CCC(=O)Nc1cc(C)on1)C(C(=O)NC(C)(C)C)c1ccc(OC)cc1 (stereo not drawn) 4.19%, Cn1c(=O)c2c(-c3ccc(Br)cc3)n(Cc3ccc(F)cc3)cc2n(C)c1=O -18.9%, COc1ccc(CCNC(=O)C2CCN(Cc3nc(-c4ccc(OC)c(OC)c4)oc3C)CC2)cc1OC 20%, COc1ccc(CC(=O)N2CCN(c3ccccc3)CC2)cc1 -21.1%, Cc1cc(C)cc(OCC(=O)NCc2nc(-c3ccccc3)no2)c1 -29.5%, C/C(N)=C(/C#N)C(=O)CSc1nnc(-c2ccccc2)n1C -1.33%, CCCC1=NN2C(=N)/C(=C\c3cc(C)n(-c4cccc(C)c4)c3C)C(=O)N=C2S1 -18.4%, CC(C)c1nn2c(=O)cc(COC(=O)c3cccs3)nc2s1 -0.955%, O=C(COC(=O)CNC(=O)c1ccc2c(c1)OCO2)Nc1ncc(Cl)cc1Cl 13.8%, Cc1nc2cccnc2n1-c1cccc(C(=O)NCCN(C)C)c1 40.5%, COc1ccc(NS(=O)(=O)c2ccc(NC(=S)NC(=O)c3ccc(Br)cc3)cc2)nn1 18.3%, COc1ccc(C2C=C(c3ccc(Cl)cc3)Nc3nc(-c4ccc(Cl)cc4)nn32)cc1 (stereo not drawn) 2.62%, COc1cccc(Cl)c1NC(=O)N1CCN(c2cc(C)nc3ccccc23)CC1 3.11%, Cc1ccccc1OCC(=O)NCC(c1ccc(Cl)cc1)N1CCCCC1 (stereo not drawn) -0.534%, COc1ccc(C(=O)CC2(O)C(=O)N(Cc3cccc(C(F)(F)F)c3)c3ccccc32)cc1 (stereo not drawn) -0.165%, CCN(c1ccccc1)S(=O)(=O)c1ccc(Cl)c(C(=O)N(CC2CCCO2)C2CCS(=O)(=O)C2)c1 (stereo not drawn) 5.93%, CCOC(=O)c1cc(C(=O)Nc2ccccc2F)nn1C 14.7%, COc1ccc(Br)cc1[C@@H]1Nc2ccc(C(=O)O)cc2[C@@H]2C=CC[C@@H]21 -21.9%, Cc1cccc(N2CCN(S(=O)(=O)c3cc(C(=O)Nc4ccc(Oc5ccccc5)cc4)ccc3F)CC2)c1C -1.32%
